Values quoted from earlier work as cited in patent US20070232656A1, “Pharmaceutical Composition And Method For Treating Neurodegenerative Disorders” (Myriad Genetics, Incorporated, priority 2004, published 2007).
At least one compound was matched to its structure with a doubt left.

Settings: clinical trials in AD patients (rofecoxib at 25 mg daily)

Cc1ccc(-c2cc(C(F)(F)F)nn2-c2ccc(S(N)(=O)=O)cc2)cc1 [Celecoxib]
efficacy for treating AD: failed to show efficacy
